Here are results for one molecule from article PMC3536697.

The target of the test is HIS6-SUMO-CaStn1N (Candida albicans Stn1, amino acid 1-239), wild type (Candida albicans). Nature of the test: pull-down; C. albicans HIS6-SUMO-CaStn1N and GST-CaTen1 made in E. coli, complex isolated by tandem affinity chromatography as for the C. glabrata Stn1-Ten1 complex; SDS-PAGE and Coomassie.

No constants are given. Whether binding was seen depends on the method and setting. Binding seen in cells or lysates may run through a third protein. Some binding calls cover weakened binding; strength is not graded here. Where a sequence is shown, tags or fusion partners need not be part of it.

B1: GST-CaTen1 fusion protein (Candida albicans Ten1) (protein, UniProt Q5A873 1-126)
chain: MTKLILNPGDLSSIFPDISISNPQRIRILCQVIKYIPNESCLIIDKIPTVAESSTNKESLVKIDVFDILEDILSIEIINKGTIINIDGYYDGEKIQPIDIYEINGINFTIENIEILNQLNQMKSLT
In the case of B1, the binding result was “binds”.
